Results from article doi:10.1101/2024.03.04.583402.
No constants are given. Whether binding was seen depends on the method and setting. Binding seen in cells or lysates may run through a third protein. Some results given as binding are weak or reduced against the parent protein; the word gives no strength.

Biological target: T1, retinoid X receptor α (UniProt P28700)
T1 sequence: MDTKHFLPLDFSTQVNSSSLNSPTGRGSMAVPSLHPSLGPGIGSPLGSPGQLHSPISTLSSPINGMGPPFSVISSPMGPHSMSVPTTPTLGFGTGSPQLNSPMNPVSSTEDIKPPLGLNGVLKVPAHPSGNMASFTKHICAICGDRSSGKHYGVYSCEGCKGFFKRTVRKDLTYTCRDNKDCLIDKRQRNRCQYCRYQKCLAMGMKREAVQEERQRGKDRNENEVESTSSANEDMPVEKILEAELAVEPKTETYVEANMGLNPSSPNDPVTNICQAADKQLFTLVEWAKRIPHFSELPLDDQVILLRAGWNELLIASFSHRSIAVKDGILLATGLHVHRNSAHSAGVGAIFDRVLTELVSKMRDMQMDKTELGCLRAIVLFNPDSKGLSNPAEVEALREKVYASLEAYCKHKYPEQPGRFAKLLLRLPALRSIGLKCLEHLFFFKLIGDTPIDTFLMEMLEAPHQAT
Assay: co-IP

B1: ZBTB9 (protein, UniProt Q8CDC7 1-459)
chain: MDASTPLPPASSSPRCNPAPQTIHIEFPHHSSSLLESLNRHRLEGKFCDVSLLVQGRELRAHKAVLAAASPYFHDKLLLGDAPRLTLPNVIEADAFEGLLQLIYSGSLHLPLDALPAHLLVASGLQMWQVVDRCSEILRELETSGGISAGGRASSLTLISTTSSGGWCIRSSPFQNPVRSSASTENSVLPESPAGGEGSELEGMLQIQVKVEEEEEQGSAAPLFQTPQPERVSGGVSQACGSHPLPTPALPSKPSEDESSTVDPPAPPVQASQILYVNQENVECKEEIARGTKEKTKVLSGEDSEEKEELRYLLSSGGGESSGAGDPSWKPVDLHGNEILSGDGGPGGTGQAMHGPVKLGGTPPADGKCFACLCGKRFAVKPKRDRHIMLTFSLRPFGCGICNKRFKLKHHLTEHMKTHARALHACPHCGRRFRVQAFFLRHRDLCKGQGWPTYHWTYK
binding: binds
